These results are taken from paper PMC10354159.

Results are given in words; binding and its absence hold for the method and conditions named. Binding seen in cells or lysates may run through a third protein. Binding calls can cover weak binding; strength is not graded here.

The target in assay [1] is insulin-like growth factor-1 receptor (mouse (endogenous in C57BL/6J tissue)). The assay is described as follows: co-IP; cortex lysate (RIPA buffer) of female C57BL/6J mice given recombinant human insulin 10 min before collection; IR or IGF1R precipitated with antibody overnight at 4 °C and protein-AG beads, blot for Inceptor.
For assay [2] the target is unchanged. Put plainly: co-IP; pancreas lysate (RIPA buffer) of female C57BL/6J mice given recombinant human insulin 10 min before collection; IR or IGF1R precipitated with antibody overnight at 4 °C and protein-AG beads, blot for Inceptor.

B1: Inceptor (protein, UniProt A2AFS3 36-1009)
chain: FQVTLGTGPELHACKESEYHFEYTACDSTGSRWRVAVPHSPGLCTSLPDPVKGTECSFSCNAGEFLDMKDQSCKPCAEGRYSLGTGIRFDEWDELPHGFASLSANLEVDDSISESTENCTSSKWVPRGDYIASNTDECTATLMYAVNLKQSGTVNFEYYYPDSSIIFEFFVQNDQCQPSADDSRWMKTTEKGWVELNRGNNVLYWRTTAFSVWSKVSKPVLVRNIAITGVAYTSECFPCKPGTYAAKQGSPFCKLCPANYYSNKGETSCHPCDADKYSEKGSSTCKVRPACTDKDYFYTHTACDAQGETQLMYKWAIPKICGEDLEGAVKLPASGVKTRCPPCNPGFFKTDNSTCEPCPYGSYSNGSDCTHCPAGTEPAVGFEYKWWNTLPSNMETTVLSGINFEYKGLTGWEVAGDHIYTAVGASDNDFMILTLVVPGFRPPQSVVADTENKEVARITFVFETICSVNCELYFMVGMNSRTNTPVETWKGTKGKQSYTYTIEENATVSFTWAFQRTTLHETGRKYTNDVAKIYSINVTNVMGGVASYCRPCALEASDLGSSCTSCPAGHYINRDSGTCHLCPSNTILKAHQPYGAQACVPCGPGTKNNKIHSLCYNDCTFSRNTPSRIFNYNFSALAGTVSLAGVPSFTSKGLKYFHHFTLSLCGNQGKKMAVCTDNVTDLRIPDGEAGFSKSVTAYVCQVVIIPSEVMGYKAGVSSQPVSLADRLVGVSTDMTLEGIVSPVELFHPETSGIPDIVFFFRSNDVTQSCSSGRSTTIRLRCNPMKAAPGTLRLPSMCSDGTCDGCNFHFLWESVAACPLCSASDYHTFVSSCVAGIQKTTYMWREPKLCSGGISLPEQRVTICKTIDFWLKVGISAGTCTAILLTVLTCYFWKKNQKLEYKYSKLVMNATLKDCDLPAADSCAIMEGEDVEDDFIFTSKKSLFGKIKSFTSKRTPDGFDSVPLKTSSGGPDMDM
Take B1: the binding result in assay [1] and in assay [2] was “binds” in each case.
